Test results: publication doi:10.1101/2021.06.01.446621
These are yes or no findings as the source states them, for the method shown. In cells and extracts the contact can be indirect. A yes stands for co-enrichment or nearness to the bait. Other partners may have been found.

Protein sequences, listed by entry. Tags and fused reporters are not part of them.
UniProt Q7Z392: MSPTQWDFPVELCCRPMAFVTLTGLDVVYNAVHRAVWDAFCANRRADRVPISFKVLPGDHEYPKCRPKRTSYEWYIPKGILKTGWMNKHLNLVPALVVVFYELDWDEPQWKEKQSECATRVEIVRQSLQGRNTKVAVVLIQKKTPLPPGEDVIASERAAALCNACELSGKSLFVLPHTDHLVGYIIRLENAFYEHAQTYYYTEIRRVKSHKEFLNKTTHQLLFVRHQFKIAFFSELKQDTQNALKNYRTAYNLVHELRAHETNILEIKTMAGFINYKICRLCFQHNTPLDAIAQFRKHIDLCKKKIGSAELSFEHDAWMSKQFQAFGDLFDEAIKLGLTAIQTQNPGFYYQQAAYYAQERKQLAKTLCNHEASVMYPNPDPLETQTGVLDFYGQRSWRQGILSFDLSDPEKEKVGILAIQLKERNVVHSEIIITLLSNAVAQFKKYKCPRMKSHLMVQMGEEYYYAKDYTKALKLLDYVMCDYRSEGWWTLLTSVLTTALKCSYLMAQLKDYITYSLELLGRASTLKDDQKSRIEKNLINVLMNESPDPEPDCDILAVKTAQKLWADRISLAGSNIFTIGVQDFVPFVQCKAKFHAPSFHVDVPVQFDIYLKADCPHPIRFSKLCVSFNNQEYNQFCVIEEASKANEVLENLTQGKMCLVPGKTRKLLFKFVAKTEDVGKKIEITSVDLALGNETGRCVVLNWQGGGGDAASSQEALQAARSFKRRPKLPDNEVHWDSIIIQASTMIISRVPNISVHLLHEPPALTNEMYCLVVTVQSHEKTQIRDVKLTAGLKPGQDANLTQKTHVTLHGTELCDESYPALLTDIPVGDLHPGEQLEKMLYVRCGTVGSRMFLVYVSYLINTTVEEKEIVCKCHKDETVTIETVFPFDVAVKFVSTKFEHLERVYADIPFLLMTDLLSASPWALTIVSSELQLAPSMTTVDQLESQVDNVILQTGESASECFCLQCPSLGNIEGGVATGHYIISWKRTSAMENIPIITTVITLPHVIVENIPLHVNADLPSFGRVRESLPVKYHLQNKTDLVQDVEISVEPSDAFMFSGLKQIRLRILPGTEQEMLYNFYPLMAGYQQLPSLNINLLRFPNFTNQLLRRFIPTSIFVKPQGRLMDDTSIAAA
UniProt Q8WVT3: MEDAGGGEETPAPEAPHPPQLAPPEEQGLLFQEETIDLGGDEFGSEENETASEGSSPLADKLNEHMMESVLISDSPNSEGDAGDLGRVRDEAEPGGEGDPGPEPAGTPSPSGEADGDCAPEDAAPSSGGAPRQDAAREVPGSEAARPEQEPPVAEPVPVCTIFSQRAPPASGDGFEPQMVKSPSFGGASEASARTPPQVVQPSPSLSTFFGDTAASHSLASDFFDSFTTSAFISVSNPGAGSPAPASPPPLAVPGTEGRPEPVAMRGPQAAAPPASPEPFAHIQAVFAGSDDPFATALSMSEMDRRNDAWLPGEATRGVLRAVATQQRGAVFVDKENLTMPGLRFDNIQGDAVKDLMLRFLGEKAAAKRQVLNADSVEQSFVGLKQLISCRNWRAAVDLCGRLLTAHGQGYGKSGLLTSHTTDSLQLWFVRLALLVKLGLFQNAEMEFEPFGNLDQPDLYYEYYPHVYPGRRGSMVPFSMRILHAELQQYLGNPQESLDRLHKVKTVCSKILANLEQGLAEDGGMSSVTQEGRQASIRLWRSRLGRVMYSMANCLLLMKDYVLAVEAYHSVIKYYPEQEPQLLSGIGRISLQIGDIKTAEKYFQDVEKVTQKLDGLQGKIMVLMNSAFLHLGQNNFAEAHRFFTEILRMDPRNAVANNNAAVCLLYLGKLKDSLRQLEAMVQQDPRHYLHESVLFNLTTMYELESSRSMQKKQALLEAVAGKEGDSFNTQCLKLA
UniProt Q9Y5R8: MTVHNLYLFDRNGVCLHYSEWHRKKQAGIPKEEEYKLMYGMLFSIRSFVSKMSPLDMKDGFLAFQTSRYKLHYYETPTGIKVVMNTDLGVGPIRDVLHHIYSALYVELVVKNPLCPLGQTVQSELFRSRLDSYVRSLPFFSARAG
UniProt Q9UL33: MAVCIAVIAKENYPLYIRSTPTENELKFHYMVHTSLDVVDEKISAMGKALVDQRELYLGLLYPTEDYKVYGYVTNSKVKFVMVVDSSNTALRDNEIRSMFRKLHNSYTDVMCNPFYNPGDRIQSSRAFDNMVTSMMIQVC
UniProt O43617: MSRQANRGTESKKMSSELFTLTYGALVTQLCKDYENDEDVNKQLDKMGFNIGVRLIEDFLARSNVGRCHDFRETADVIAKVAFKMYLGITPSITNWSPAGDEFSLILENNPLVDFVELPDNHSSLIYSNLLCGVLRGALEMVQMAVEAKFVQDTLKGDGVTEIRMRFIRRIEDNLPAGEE
UniProt Q9Y296: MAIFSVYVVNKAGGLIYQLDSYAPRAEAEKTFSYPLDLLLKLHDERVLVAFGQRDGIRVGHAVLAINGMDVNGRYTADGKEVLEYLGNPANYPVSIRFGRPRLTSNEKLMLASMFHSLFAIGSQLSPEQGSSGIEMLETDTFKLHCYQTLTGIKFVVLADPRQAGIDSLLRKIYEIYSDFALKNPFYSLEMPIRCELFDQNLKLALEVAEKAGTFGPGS
UniProt Q8IUR0: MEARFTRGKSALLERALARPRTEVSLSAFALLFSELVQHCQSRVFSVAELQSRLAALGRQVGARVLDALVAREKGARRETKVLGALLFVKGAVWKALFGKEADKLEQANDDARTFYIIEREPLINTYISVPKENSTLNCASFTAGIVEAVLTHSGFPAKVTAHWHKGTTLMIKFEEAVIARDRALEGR
UniProt O75865: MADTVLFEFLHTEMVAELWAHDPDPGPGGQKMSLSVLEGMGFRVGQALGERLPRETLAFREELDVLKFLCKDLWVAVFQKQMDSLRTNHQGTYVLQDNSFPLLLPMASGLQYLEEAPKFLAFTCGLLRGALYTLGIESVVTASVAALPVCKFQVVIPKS
UniProt Q9Y2L5: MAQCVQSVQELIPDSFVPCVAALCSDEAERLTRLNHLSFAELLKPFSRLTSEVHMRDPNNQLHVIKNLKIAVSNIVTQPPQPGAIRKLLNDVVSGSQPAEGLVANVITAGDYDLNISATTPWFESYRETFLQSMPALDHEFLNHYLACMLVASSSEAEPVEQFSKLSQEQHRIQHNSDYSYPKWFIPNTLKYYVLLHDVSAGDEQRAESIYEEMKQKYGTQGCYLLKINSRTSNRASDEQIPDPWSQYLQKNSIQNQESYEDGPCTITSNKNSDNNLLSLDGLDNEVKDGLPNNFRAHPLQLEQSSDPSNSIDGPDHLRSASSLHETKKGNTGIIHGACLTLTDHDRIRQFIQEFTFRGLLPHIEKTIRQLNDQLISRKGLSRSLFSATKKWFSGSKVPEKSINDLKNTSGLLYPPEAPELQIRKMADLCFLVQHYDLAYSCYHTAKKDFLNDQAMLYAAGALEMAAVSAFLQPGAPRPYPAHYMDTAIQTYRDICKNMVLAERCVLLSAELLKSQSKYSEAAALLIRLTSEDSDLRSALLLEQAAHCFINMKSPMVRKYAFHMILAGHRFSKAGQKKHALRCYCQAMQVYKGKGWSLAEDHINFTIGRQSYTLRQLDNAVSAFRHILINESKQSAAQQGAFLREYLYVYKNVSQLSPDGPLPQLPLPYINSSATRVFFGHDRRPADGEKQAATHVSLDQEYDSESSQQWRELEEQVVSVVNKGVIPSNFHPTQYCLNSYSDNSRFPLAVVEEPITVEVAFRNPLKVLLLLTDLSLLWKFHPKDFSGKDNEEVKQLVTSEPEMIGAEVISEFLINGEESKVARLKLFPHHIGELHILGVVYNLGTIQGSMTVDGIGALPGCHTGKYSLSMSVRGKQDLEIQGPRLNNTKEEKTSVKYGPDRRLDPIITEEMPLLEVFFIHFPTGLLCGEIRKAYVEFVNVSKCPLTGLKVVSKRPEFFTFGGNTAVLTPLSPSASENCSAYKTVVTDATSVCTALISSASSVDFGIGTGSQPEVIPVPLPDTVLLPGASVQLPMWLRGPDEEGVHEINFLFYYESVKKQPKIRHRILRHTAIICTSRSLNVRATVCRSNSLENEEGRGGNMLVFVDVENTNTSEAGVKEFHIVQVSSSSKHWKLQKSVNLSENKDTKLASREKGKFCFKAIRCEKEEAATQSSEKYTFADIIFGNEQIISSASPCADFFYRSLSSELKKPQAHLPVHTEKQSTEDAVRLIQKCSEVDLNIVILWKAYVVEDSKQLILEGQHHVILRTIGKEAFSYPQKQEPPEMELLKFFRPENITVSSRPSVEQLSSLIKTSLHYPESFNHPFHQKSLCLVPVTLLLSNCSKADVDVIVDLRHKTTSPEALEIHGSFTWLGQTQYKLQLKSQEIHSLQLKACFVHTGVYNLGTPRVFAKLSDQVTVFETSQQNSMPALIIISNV
UniProt A5PLN9: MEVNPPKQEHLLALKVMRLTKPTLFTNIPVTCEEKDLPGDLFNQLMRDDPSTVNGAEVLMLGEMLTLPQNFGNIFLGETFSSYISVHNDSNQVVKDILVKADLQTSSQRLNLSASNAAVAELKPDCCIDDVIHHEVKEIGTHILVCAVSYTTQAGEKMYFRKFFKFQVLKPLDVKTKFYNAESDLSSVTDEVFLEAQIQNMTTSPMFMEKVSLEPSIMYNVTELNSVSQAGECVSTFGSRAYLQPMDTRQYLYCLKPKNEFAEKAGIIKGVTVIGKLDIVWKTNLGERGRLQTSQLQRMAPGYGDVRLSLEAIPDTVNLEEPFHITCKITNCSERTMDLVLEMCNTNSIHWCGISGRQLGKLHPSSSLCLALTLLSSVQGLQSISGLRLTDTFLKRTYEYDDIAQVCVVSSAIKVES

Legend:
TRAPPC11 (mammalian) = TRAPPC11 (mammalian) (UniProt Q7Z392); test: affinity purification with mass spectrometry + SEC
TRAPPC12 (mammalian) = TRAPPC12 (mammalian) (UniProt Q8WVT3); test: affinity purification with mass spectrometry + SEC

Question: How did the binding (TRAPPC11 (mammalian)) turn out when TRAPPC1 (from UniProt Q9Y5R8 1-145) was run?
Answer: The binding was “binds”.

Question: What about the binding (TRAPPC12 (mammalian)) of the same substance?
Answer: The binding was “binds”.

Question: Which results are given for TRAPPC2L (from UniProt Q9UL33 1-140)?
Answer: binding (TRAPPC11 (mammalian)): binds; binding (TRAPPC12 (mammalian)): binds

Question: Which binding (TRAPPC11 (mammalian)) does the source give for TRAPPC3 (from UniProt O43617 1-180) here?
Answer: Its binding is “binds”.

Question: And the binding (TRAPPC12 (mammalian))?
Answer: Its binding is “binds”.

Question: TRAPPC4 (from UniProt Q9Y296 1-219) was tested. Which binding (TRAPPC11 (mammalian)) did it give?
Answer: Its binding is “binds”.

Question: What about the binding (TRAPPC12 (mammalian)) of the same substance?
Answer: The binding was “binds”.

Question: With TRAPPC5 (from UniProt Q8IUR0 1-188) as the substance, how does the binding (TRAPPC11 (mammalian)) read?
Answer: The binding was “binds”.

Question: What about the binding (TRAPPC12 (mammalian)) of the same substance?
Answer: The binding was “binds”.

Question: For TRAPPC6A (from UniProt O75865 1-159), which binding (TRAPPC11 (mammalian)) is on record?
Answer: The binding was “binds”.

Question: What about the binding (TRAPPC12 (mammalian)) of the same substance?
Answer: The binding was “binds”.

Question: For TRAPPC8 (from UniProt Q9Y2L5 1-1435), which binding (TRAPPC11 (mammalian)) is on record?
Answer: Its binding is “binds”.

Question: And the binding (TRAPPC12 (mammalian))?
Answer: Its binding is “binds”.

Question: With TRAPPC11 (from UniProt Q7Z392 1-1133) as the substance, how does the binding (TRAPPC12 (mammalian)) read?
Answer: The binding was “binds”.

Question: What does the source list for TRAPPC13 (from UniProt A5PLN9 1-417)?
Answer: binding (TRAPPC11 (mammalian)): binds; binding (TRAPPC12 (mammalian)): binds
